Measurements as given in doi:10.1101/2022.10.04.510822 (bioRxiv, 2022).

Chains of the proteins cited; added tags and fusions are not shown.
UniProt O95166: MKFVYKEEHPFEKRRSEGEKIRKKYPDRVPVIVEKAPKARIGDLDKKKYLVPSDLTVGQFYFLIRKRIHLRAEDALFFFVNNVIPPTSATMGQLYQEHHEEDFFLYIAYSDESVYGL

Target: HA-GABARAP (IMR90, stably expressed) (human) (UniProt O95166)
Assay: affinity purification with mass spectrometry

B1: WSTF, endogenous in IMR90 (protein, UniProt Q9UIG0 1-1483)
chain: MAPLLGRKPFPLVKPLPGEEPLFTIPHTQEAFRTREEYEARLERYSERIWTCKSTGSSQLTHKEAWEEEQEVAELLKEEFPAWYEKLVLEMVHHNTASLEKLVDTAWLEIMTKYAVGEECDFEVGKEKMLKVKIVKIHPLEKVDEEATEKKSDGACDSPSSDKENSSQIAQDHQKKETVVKEDEGRRESINDRARRSPRKLPTSLKKGERKWAPPKFLPHKYDVKLQNEDKIISNVPADSLIRTERPPNKEIVRYFIRHNALRAGTGENAPWVVEDELVKKYSLPSKFSDFLLDPYKYMTLNPSTKRKNTGSPDRKPSKKSKTDNSSLSSPLNPKLWCHVHLKKSLSGSPLKVKNSKNSKSPEEHLEEMMKMMSPNKLHTNFHIPKKGPPAKKPGKHSDKPLKAKGRSKGILNGQKSTGNSKSPKKGLKTPKTKMKQMTLLDMAKGTQKMTRAPRNSGGTPRTSSKPHKHLPPAALHLIAYYKENKDREDKRSALSCVISKTARLLSSEDRARLPEELRSLVQKRYELLEHKKRWASMSEEQRKEYLKKKREELKKKLKEKAKERREKEMLERLEKQKRYEDQELTGKNLPAFRLVDTPEGLPNTLFGDVAMVVEFLSCYSGLLLPDAQYPITAVSLMEALSADKGGFLYLNRVLVILLQTLLQDEIAEDYGELGMKLSEIPLTLHSVSELVRLCLRRSDVQEESEGSDTDDNKDSAAFEDNEVQDEFLEKLETSEFFELTSEEKLQILTALCHRILMTYSVQDHMETRQQMSAELWKERLAVLKEENDKKRAEKQKRKEMEAKNKENGKVENGLGKTDRKKEIVKFEPQVDTEAEDMISAVKSRRLLAIQAKKEREIQEREMKVKLERQAEEERIRKHKAAAEKAFQEGIAKAKLVMRRTPIGTDRNHNRYWLFSDEVPGLFIEKGWVHDSIDYRFNHHCKDHTVSGDEDYCPRSKKANLGKNASMNTQHGTATEVAVETTTPKQGQNLWFLCDSQKELDELLNCLHPQGIRESQLKERLEKRYQDIIHSIHLARKPNLGLKSCDGNQELLNFLRSDLIEVATRLQKGGLGYVEETSEFEARVISLEKLKDFGECVIALQASVIKKFLQGFMAPKQKRRKLQSEDSAKTEEVDEEKKMVEEAKVASALEKWKTAIREAQTFSRMHVLLGMLDACIKWDMSAENARCKVCRKKGEDDKLILCDECNKAFHLFCLRPALYEVPDGEWQCPACQPATARRNSRGRNYTEESASEDSEDDESDEEEEEEEEEEEEEDYEVAGLRLRPRKTIRGKHSVIPPAARSGRRPGKKPHSTRRSQPKAPPVDDAEVDELVLQTKRSSRRQSLELQKCEEILHKIVKYRFSWPFREPVTRDEAEDYYDVITHPMDFQTVQNKCSCGSYRSVQEFLTDMKQVFTNAEVYNCRGSHVLSCMVKTEQCLVALLHKHLPGHPYVRRKRKKFPDRLAEDEGDSEPEAVGQSRGRRQKK
binding: binds

No constants are given. Whether binding was seen depends on the method and setting. Binding seen in cells or lysates may run through a third protein. A yes stands for co-enrichment or nearness to the bait. Other partners may have been found.
